Measurements as given in article PMC3401112.
These are yes or no findings as the source states them, for the method shown. Binding seen in cells or lysates may run through a third protein. Some binding calls cover weakened binding; strength is not graded here. For some assays here: Where a sequence is shown, tags or fusion partners need not be part of it.

Chains of the proteins cited; added tags and fusions are not shown. Lines headed by an entry give the natural chain unless they say otherwise; changes in a name come on top. Residues count along the entry.
UniProt Q63472: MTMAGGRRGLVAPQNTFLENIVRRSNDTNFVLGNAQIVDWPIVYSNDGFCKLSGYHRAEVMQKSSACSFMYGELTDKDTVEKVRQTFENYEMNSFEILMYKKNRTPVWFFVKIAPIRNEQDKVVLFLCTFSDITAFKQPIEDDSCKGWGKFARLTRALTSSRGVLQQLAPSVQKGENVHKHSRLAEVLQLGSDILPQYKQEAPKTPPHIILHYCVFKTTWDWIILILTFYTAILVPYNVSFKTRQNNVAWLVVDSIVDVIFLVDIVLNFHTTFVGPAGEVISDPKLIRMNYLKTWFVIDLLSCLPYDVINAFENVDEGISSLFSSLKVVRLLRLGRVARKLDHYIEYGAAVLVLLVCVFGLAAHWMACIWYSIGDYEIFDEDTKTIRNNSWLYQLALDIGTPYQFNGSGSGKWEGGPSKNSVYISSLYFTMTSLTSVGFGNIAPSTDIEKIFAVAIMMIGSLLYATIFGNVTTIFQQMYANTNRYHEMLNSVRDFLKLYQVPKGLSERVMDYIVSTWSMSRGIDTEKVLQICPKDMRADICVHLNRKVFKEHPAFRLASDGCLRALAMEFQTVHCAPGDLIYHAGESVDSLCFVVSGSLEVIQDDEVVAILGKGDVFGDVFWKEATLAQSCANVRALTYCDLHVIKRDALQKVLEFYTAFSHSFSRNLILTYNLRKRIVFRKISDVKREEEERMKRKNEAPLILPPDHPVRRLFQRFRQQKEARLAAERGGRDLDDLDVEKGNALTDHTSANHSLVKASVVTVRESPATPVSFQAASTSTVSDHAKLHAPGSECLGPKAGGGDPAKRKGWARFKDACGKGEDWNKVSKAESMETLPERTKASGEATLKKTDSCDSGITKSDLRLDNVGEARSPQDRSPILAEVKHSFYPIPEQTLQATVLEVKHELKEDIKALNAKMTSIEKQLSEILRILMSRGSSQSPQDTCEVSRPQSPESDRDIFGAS
GST-N207 (GST fusion protein of the rEag1 N-terminus, amino acids 1-207): residues 1-207 of Q63472
GST-C1 (rEag1 amino acids 492-724): residues 492-724 of Q63472
GST-C0 (GST fusion protein of the rEag1 cytoplasmic C-terminus, amino acids 493-962): residues 493-962 of Q63472
GST-C1-2 (rEag1 CNBHD region, amino acids 561-672): residues 561-672 of Q63472
UniProt P62260: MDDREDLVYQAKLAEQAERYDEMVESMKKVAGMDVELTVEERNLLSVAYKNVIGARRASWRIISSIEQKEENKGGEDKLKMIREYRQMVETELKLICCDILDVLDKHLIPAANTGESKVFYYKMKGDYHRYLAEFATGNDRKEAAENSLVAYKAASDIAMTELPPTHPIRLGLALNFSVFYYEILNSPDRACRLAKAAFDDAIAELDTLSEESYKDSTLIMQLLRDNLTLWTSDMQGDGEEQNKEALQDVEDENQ
UniProt Q12809: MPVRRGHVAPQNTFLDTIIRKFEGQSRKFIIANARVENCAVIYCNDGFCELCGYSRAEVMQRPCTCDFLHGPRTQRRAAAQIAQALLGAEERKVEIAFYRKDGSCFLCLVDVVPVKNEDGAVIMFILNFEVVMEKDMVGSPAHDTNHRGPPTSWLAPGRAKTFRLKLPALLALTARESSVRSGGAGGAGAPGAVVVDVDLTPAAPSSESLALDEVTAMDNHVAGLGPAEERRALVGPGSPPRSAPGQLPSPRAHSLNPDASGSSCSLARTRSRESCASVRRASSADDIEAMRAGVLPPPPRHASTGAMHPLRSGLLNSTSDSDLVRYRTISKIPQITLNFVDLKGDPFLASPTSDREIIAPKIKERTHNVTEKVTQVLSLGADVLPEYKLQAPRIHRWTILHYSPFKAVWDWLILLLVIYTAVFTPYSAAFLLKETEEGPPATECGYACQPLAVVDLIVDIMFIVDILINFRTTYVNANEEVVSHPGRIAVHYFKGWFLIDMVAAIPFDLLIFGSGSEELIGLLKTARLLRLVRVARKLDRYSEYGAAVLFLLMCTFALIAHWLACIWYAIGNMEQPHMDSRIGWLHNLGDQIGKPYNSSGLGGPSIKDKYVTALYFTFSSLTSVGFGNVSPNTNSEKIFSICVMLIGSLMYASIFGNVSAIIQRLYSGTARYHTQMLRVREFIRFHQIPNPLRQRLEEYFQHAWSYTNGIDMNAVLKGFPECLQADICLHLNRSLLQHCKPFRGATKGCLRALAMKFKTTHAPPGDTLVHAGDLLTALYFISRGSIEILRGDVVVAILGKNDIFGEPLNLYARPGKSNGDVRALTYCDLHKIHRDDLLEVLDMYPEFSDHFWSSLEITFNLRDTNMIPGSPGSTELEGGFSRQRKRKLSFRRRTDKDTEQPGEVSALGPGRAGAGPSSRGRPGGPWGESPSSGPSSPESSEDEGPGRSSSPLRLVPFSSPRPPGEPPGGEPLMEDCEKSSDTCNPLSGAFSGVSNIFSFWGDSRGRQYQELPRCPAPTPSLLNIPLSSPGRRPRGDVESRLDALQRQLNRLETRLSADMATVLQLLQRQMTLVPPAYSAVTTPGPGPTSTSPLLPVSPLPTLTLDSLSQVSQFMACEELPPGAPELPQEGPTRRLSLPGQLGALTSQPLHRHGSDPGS
UniProt P63102: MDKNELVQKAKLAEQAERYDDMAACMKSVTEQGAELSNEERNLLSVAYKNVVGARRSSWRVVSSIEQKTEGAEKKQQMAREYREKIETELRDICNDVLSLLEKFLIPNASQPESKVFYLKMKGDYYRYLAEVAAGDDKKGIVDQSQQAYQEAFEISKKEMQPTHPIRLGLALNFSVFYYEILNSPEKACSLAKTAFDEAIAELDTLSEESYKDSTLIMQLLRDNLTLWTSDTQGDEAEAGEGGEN

T1: myc-tagged 14-3-3θ (rat) (UniProt P68255)
T1 sequence: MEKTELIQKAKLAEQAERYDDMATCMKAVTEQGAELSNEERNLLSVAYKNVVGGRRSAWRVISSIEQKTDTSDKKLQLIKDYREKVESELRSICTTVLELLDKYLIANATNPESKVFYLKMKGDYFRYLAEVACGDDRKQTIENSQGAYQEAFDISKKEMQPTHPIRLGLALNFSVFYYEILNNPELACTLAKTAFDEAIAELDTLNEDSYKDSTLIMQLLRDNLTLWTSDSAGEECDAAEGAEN

T2: endogenous 14-3-3θ of rat forebrain (rat (endogenous in rat forebrain)) (UniProt P68255)
T2 sequence: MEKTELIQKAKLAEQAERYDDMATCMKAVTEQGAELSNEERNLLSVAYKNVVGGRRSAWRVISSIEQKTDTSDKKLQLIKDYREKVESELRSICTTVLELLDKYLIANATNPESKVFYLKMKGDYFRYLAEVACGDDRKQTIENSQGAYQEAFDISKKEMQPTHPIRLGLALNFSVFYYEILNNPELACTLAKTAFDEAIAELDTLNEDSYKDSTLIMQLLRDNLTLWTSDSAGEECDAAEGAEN


Legend:
myc-tagged 14-3-3θ (rat) = molecular target: T1, myc-tagged 14-3-3θ (rat); experiment: co-IP; HEK293T cells co-transfected with the channel and myc-tagged 14-3-3; lysates in buffer A with 1% Triton X-100; IP with anti-myc or anti-rEag1 on protein G-Sepharose, 16 hrs at 4°C; also after 1-hr treatment of the cells with 1 µM okadaic acid or staurosporine
[1] = molecular target: T2, endogenous 14-3-3θ of rat forebrain (rat (endogenous in rat forebrain)); experiment: co-IP; detergent solubilized crude membrane (P2) fraction of rat forebrain homogenates; IP with anti-14-3-3θ, immunoblot with anti-rEag1; non-immune IgG as negative control
[2] = molecular target: GST-C0 (GST fusion protein of the rEag1 cytoplasmic C-terminus, amino acids 493-962) (rat) (UniProt Q63472); experiment: pull-down; GST protein-coated glutathione-agarose beads (4-8 µg) incubated with lysates of HEK293T cells expressing myc-tagged 14-3-3 isoforms at 4°C overnight; washed with buffer A; immunoblot with anti-myc; only the target purified
[3] = molecular target: GST-N207 (GST fusion protein of the rEag1 N-terminus, amino acids 1-207) (rat) (UniProt Q63472); experiment: as above
myc-tagged 14-3-3ε (rat) = myc-tagged 14-3-3ε (rat) (UniProt P62260); experiment: co-IP; HEK293T cells co-transfected with the channel and myc-tagged 14-3-3; lysates in buffer A with 1% Triton X-100; IP with anti-myc or anti-rEag1 on protein G-Sepharose, 16 hrs at 4°C; also after 1-hr treatment of the cells with 1 µM okadaic acid or staurosporine
[4] = molecular target: GST-C1 (rEag1 amino acids 492-724) (rat) (UniProt Q63472); experiment: pull-down; GST protein-coated glutathione-agarose beads (4-8 µg) incubated with lysates of HEK293T cells expressing myc-tagged 14-3-3 isoforms at 4°C overnight; washed with buffer A; immunoblot with anti-myc; only the target purified
[5] = molecular target: GST-C1-2 (rEag1 CNBHD region, amino acids 561-672) (rat) (UniProt Q63472); experiment: as above
[6] = molecular target: full-length rEag1 (rat Eag1 potassium channel) (rat) (UniProt Q63472); experiment: co-IP; HEK293T cells co-transfected with the channel and myc-tagged 14-3-3; lysates in buffer A with 1% Triton X-100; IP with anti-myc or anti-rEag1 on protein G-Sepharose, 16 hrs at 4°C; also after 1-hr treatment of the cells with 1 µM okadaic acid or staurosporine
[7] = molecular target: GST-C0 (GST fusion protein of the rEag1 cytoplasmic C-terminus, amino acids 493-962) (rat) (UniProt Q63472); experiment: pull-down; GST protein-coated glutathione-agarose beads (4-8 µg) incubated with pre-cleared in vitro translated 14-3-3θ at 4°C overnight; washed with buffer A; immunoblot with anti-14-3-3θ; only the target purified
[8] = molecular target: GST-N207 (GST fusion protein of the rEag1 N-terminus, amino acids 1-207) (rat) (UniProt Q63472); experiment: as above
[9] = molecular target: GST-C0 (GST fusion protein of the rEag1 cytoplasmic C-terminus, amino acids 493-962) (rat) (UniProt Q63472); experiment: pull-down; GST-C0 or GST-N207 beads with lysates of HEK293T cells over-expressing the YFP vector, YFP-difopein or YFP-R18 mutant; immunoblot with anti-14-3-3θ; only the target purified
[10] = molecular target: GST-N207 (GST fusion protein of the rEag1 N-terminus, amino acids 1-207) (rat) (UniProt Q63472); experiment: as above

| Molecule | binding [2] | binding [3] | further results |
| --- | --- | --- | --- |
| full-length rEag1 (rat Eag1 potassium channel) (from UniProt Q63472 1-962) |  |  | binding (myc-tagged 14-3-3θ (rat)): binds |
| endogenous rEag1 of rat forebrain (from UniProt Q63472 1-962) |  |  | binding [1]: binds |
| Herg channel (from UniProt Q12809 1-1159) |  |  | binding (myc-tagged 14-3-3ε (rat)): binds |
| rEag2 (rat Eag2 potassium channel) (protein, UniProt Q9EPI9 1-988) MPGGKRGLVAPQNTFLENIVRRSSESSFLLGNAQIVDWPVVYSNDGFCKLSGYHRADVMQKSSTCSFMYGELTDKKTIEKVRQTFDNYESNCFEVLLYKKNRTPVWFYMQIAPIRNEHEKVVLFLCTFKDITLFKQPIEDDSTKGWTKFARLTRALTNSRSVLQQLTPMNKTETVHKHSRLAEVLQLGSDILPQYKQEAPKTPPHIILHYCAFKTTWDWVILILTFYTAIMVPYNVSFKTKQNNIAWLVLDSVVDVIFLVDIVLNFHTTFVGPGGEVISDPKLIRMNYLKTWFVIDLLSCLPYDIINAFENVDEGISSLFSSLKVVRLLRLGRVARKLDHYLEYGAAVLVLLVCVFGLVAHWLACIWYSIGDYEVIDEVTNTIQIDSWLYQLALSIGTPYRYNTSAGIWEGGPSKDSLYVSSLYFTMTSLTTIGFGNIAPTTDVEKMFSVAMMMVGSLLYATIFGNVTTIFQQMYANTNRYHEMLNNVRDFLKLYQVPKGLSERVMDYIVSTWSMSKGIDTEKVLSICPKDMRADICVHLNRKVFNEHPAFRLASDGCLRALAVEFQTIHCAPGDLIYHAGESVDALCFVVSGSLEVIQDEEVVAILGKGDVFGDIFWKETTLAHACANVRALTYCDLHIIKREALLKVLDFYTAFANSFSRNLTLTCNLRKRIIFRKISDVKKEEEERLRQKNEVTLSIPVDHPVRKLFQKFKQQKELRNQGSAQSDPERSQLQVESRPLQNGASITGTSVVTVSQITPIQTSLAYVKTSETLKQNNRDAMELKPNGGAEPKCLKVNSPIRMKNGNGKGWLRLKNNMGAHEEKKEEWNNVTKAESMGLLSEDPKGSDSENSVTKNPLRKTDSCDSGITKSDLRLDKAGEARSPLEHSPSQADAKHPFYPIPEQALQTTLQEVKHELKEDIQLLSCRMTALEKQVAEILKLLSEKSVPQTSSPKPQIPLQVPPQIPCQDIFSVSRPESPESDKDEINF |  |  | binding (myc-tagged 14-3-3θ (rat)): no binding |
| in vitro translated 14-3-3θ (protein, UniProt P68255 1-245) MEKTELIQKAKLAEQAERYDDMATCMKAVTEQGAELSNEERNLLSVAYKNVVGGRRSAWRVISSIEQKTDTSDKKLQLIKDYREKVESELRSICTTVLELLDKYLIANATNPESKVFYLKMKGDYFRYLAEVACGDDRKQTIENSQGAYQEAFDISKKEMQPTHPIRLGLALNFSVFYYEILNNPELACTLAKTAFDEAIAELDTLNEDSYKDSTLIMQLLRDNLTLWTSDSAGEECDAAEGAEN |  |  | binding [7]: binds; binding [8]: binds |
| 14-3-3θ in lysates of HEK293T cells over-expressing the YFP vector, YFP-difopein or YFP-R18 mutant (protein, UniProt P27348 1-245) MEKTELIQKAKLAEQAERYDDMATCMKAVTEQGAELSNEERNLLSVAYKNVVGGRRSAWRVISSIEQKTDTSDKKLQLIKDYREKVESELRSICTTVLELLDKYLIANATNPESKVFYLKMKGDYFRYLAEVACGDDRKQTIDNSQGAYQEAFDISKKEMQPTHPIRLGLALNFSVFYYEILNNPELACTLAKTAFDEAIAELDTLNEDSYKDSTLIMQLLRDNLTLWTSDSAGEECDAAEGAEN |  |  | binding [9]: binds; binding [10]: binds |
| myc-tagged 14-3-3 α/β isoform (protein, UniProt P35213 1-246) MTMDKSELVQKAKLAEQAERYDDMAAAMKAVTEQGHELSNEERNLLSVAYKNVVGARRSSWRVISSIEQKTERNEKKQQMGKEYREKIEAELQDICSDVLELLDKYLILNATHAESKVFYLKMKGDYFRYLSEVASGDNKQTTVSNSQQAYQEAFEISKKEMQPTHPIRLGLALNFSVFYYEILNSPEKACSLAKTAFDEAIAELDTLNEESYKDSTLIMQLLRDNLTLWTSENQGDEGDAGEGEN | binds | binds |  |

Continued, in another order:

| binding [2] | binding [3] | Molecule | further results |
| --- | --- | --- | --- |
| no binding | no binding | myc-tagged 14-3-3ε (from UniProt P62260 1-255) |  |
| binds | binds | myc-tagged 14-3-3 ζ/δ isoform (from UniProt P63102 1-245) |  |
| binds | binds | myc-tagged 14-3-3 η isoform (protein, UniProt P68511 1-246) MGDREQLLQRARLAEQAERYDDMASAMKAVTELNEPLSNEDRNLLSVAYKNVVGARRSSWRVISSIEQKTMADGNEKKLEKVKAYREKIEKELETVCNDVLALLDKFLIKNCNDFQYESKVFYLKMKGDYYRYLAEVASGEKKNSVVEASEAAYKEAFEISKEHMQPTHPIRLGLALNFSVFYYEIQNAPEQACLLAKQAFDDAIAELDTLNEDSYKDSTLIMQLLRDNLTLWTSDQQDEEAGEGN |  |
| binds | binds | myc-tagged 14-3-3 γ isoform (protein, UniProt P61983 1-247) MVDREQLVQKARLAEQAERYDDMAAAMKNVTELNEPLSNEERNLLSVAYKNVVGARRSSWRVISSIEQKTSADGNEKKIEMVRAYREKIEKELEAVCQDVLSLLDNYLIKNCSETQYESKVFYLKMKGDYYRYLAEVATGEKRATVVESSEKAYSEAHEISKEHMQPTHPIRLGLALNYSVFYYEIQNAPEQACHLAKTAFDDAIAELDTLNEDSYKDSTLIMQLLRDNLTLWTSDQQDDDGGEGNN |  |
| binds | binds | myc-tagged 14-3-3θ (protein, UniProt P68255 1-245) MEKTELIQKAKLAEQAERYDDMATCMKAVTEQGAELSNEERNLLSVAYKNVVGGRRSAWRVISSIEQKTDTSDKKLQLIKDYREKVESELRSICTTVLELLDKYLIANATNPESKVFYLKMKGDYFRYLAEVACGDDRKQTIENSQGAYQEAFDISKKEMQPTHPIRLGLALNFSVFYYEILNNPELACTLAKTAFDEAIAELDTLNEDSYKDSTLIMQLLRDNLTLWTSDSAGEECDAAEGAEN | binding [4]: binds; binding [5]: binds; binding [6]: binds |
